Here are results for 49 molecules from the supplement of paper PMC3682954.

The structures appear in SMILES notation. Where a name gives a salt, the structure may show the parent alone. ± gives the standard deviation of the averaged measurements. Some of the results follow. Many values rest on one well or one pass, so single values are uncertain.

By cell viability is commonly meant a read-out of living cells in per cent, often relative to untreated cells.

This experiment relates to RAW 264.7. Put plainly: cell viability (MTT) relative to vehicle control; higher = more viable cells. To be noted: stimulus: HMGB1 5 ug/ml, 18 h.
Setting [1] is: compound concentration: 1 ug/ml.

`CO[C@@]1(NC(=O)C(C(=O)O)c2ccc(O)cc2)C(=O)N2C(C(=O)O)=C(CSc3nnnn3C)CO[C@@H]21` (stereo not given in full) [Moxalactam disodium salt]: the cell viability (compound concentration: 3 uM) was found to be 100%.
For the molecule `CO[C@@]1(NC(=O)C(C(=O)O)c2ccc(O)cc2)C(=O)N2C(C(=O)O)=C(CSc3nnnn3C)CO[C@@H]21` (stereo not given in full), the cell viability (compound concentration: 3 uM) turned out to be 109%.
For the molecule `COc1ccc(-c2coc3ccc(OC4OC(COC(C)=O)C(OC(C)=O)C(OC(C)=O)C4OC(C)=O)cc3c2=O)cc1` (stereo not given), the cell viability under setting [1] is 95%.
Turning to `CS(=O)(=O)c1ccc([C@H](O)[C@@H](COC(=O)CN)NC(=O)C(Cl)Cl)cc1` [Thiamphenicol glycinate], the cell viability (compound concentration: 3 uM) was determined as 95.7%.
Consider `CO[C@H]1C[C@@H]2CC[C@@H](C)[C@@](O)(O2)C(=O)C(=O)N2CCCC[C@H]2C(=O)O[C@H]([C@H](C)C[C@@H]2CC[C@@H](O)[C@H](OC)C2)CC(=O)[C@H](C)/C=C(\C)[C@@H](O)[C@@H](OC)C(=O)[C@H](C)C[C@H](C)/C=C/C=C/C=C/1C`, for which the cell viability (compound concentration: 3 uM) amounted to 112 ± 11%.
Take `CO[C@H]1C[C@@H]2CC[C@@H](C)[C@@](O)(O2)C(=O)C(=O)N2CCCC[C@H]2C(=O)O[C@H]([C@H](C)C[C@@H]2CC[C@@H](O)[C@H](OC)C2)CC(=O)[C@H](C)/C=C(\C)[C@@H](O)[C@@H](OC)C(=O)[C@H](C)C[C@H](C)/C=C/C=C/C=C/1C` [Rapamycin]: the cell viability (compound concentration: 3 uM) amounted to 99.9%.
Consider `Cc1cccc(CCN2CCC(C(=O)c3ccc(NS(C)(=O)=O)cc3)CC2)n1`, for which, for the setting “compound concentration: 3 uM”, the cell viability amounted to 100%.
Same read-out and setting: the value for `CCN(CC)CCn1c(=O)c(Cc2ccc(OC)cc2)nc2ccccc21` [Caroverine hydrochloride] was 106%; that for `CNc1cc(NS(=O)(=O)c2ccc(N)cc2)nc(NC)n1` [Ro 04-6790 dihydrochloride] was 120%.
For `NS(=O)(=O)c1ccc(C(=O)O)cc1`, the cell viability (compound concentration: 3 uM) was 110%.
On to `O=C(O)P(=O)(O)O`, for which, for the setting “compound concentration: 3 uM”, the cell viability amounted to 103%.
Consider `Nc1ncnc2c1ncn2[C@@H]1O[C@H](CO)[C@@H](OP(=O)(O)O)[C@H]1O` [3'-Adenylic acid], for which the cell viability under setting [1] came out at 99.8%.
On to `CCCCCCCCCCCCCCCC[N+](C)(C)CCN(Cc1ccc(OC)cc1)c1ncccn1` [Thonzonium bromide], for which the cell viability (compound concentration: 3 uM) turned out to be 86%.
Consider `Cc1nc(C)c(Cl)c(O)c1Cl` [Clopidol], for which, under “compound concentration: 3 uM”, the cell viability was 96%.
Same read-out and setting: the value for `Cc1nc(C)c(Cl)c(O)c1Cl` was 108%.
On the same count and under the same terms, the value for `CCN(CC)CCCC(C)Nc1c2ccc(Cl)cc2nc2ccc(OC)cc12` (stereo not given) [Quinacrine dihydrochloride] was 107%; that for `CCN(CC)CCCC(C)Nc1c2ccc(Cl)cc2nc2ccc(OC)cc12` (stereo not given) was 86.3 ± 14%.
With `CCN(CC)CCCC(C)Nc1c2ccc(Cl)cc2nc2ccc(OC)cc12` (stereo not given) [Quinacrine dihydrochloride dihydrate], the cell viability (compound concentration: 3 uM) was 102%.
Consider `CCN(CC)CCCC(C)Nc1c2ccc(Cl)cc2nc2ccc(OC)cc12` (stereo not given) [Quinacrine], for which the cell viability (compound concentration: 3 uM) turned out to be 103%.
`CC(=O)N1CCN(c2ccc(OCC3COC(Cn4ccnc4)(c4ccc(Cl)cc4Cl)O3)cc2)CC1` (stereo not given): the cell viability (compound concentration: 3 uM) was found to be 105 ± 11%.
Regarding `CC(=O)N1CCN(c2ccc(OCC3COC(Cn4ccnc4)(c4ccc(Cl)cc4Cl)O3)cc2)CC1` (stereo not given) [Ketoconazole], the cell viability (compound concentration: 3 uM) was determined as 103 ± 3.1%.
With `CN(CCOc1ccc(NS(C)(=O)=O)cc1)CCc1ccc(NS(C)(=O)=O)cc1`, for the setting “compound concentration: 3 uM”, the cell viability amounted to 96.2%.
With `CN(CCOc1ccc(NS(C)(=O)=O)cc1)CCc1ccc(NS(C)(=O)=O)cc1` [Dofetilide], the cell viability (compound concentration: 3 uM) worked out at 90.1%.
In the case of `COc1cc(C=O)ccc1O` [Vanillin], the cell viability under setting [1] worked out at 96.4%.
Regarding `CC1=C(C)C(=O)C(CCCCC#CCCCC#CCO)=C(C)C1=O`, the cell viability (compound concentration: 3 uM) worked out at 101%.
As for `CC1=C(C)C(=O)C(CCCCC#CCCCC#CCO)=C(C)C1=O` [Docebenone], the cell viability (compound concentration: 3 uM) is 107%.
With `CC(C)NCC(O)c1ccc(NS(C)(=O)=O)cc1` (stereo not given) [Sotalol], under “compound concentration: 3 uM”, the cell viability turned out to be 102%.
Turning to `CC(C)NCC(O)c1ccc(NS(C)(=O)=O)cc1` (stereo not given) [Sotalol hydrochloride], the cell viability (compound concentration: 3 uM) was found to be 105%.
Still for that read-out and setting: with `C#C[C@]1(O)CC[C@H]2[C@@H]3CCc4cc(OC)ccc4[C@H]3CC[C@@]21C` [Ethynylestradiol 3-methyl ether] the figure was 90.3%.
For the molecule `C#C[C@]1(O)CC[C@H]2[C@@H]3CCc4cc(OC)ccc4[C@H]3CC[C@@]21C`, where the note is “compound concentration: 3 uM”, the cell viability worked out at 108 ± 11%.
Regarding `CCCc1nc(C)c2c(O)nc(-c3cc(S(=O)(=O)N4CCN(CC)CC4)ccc3OCC)nn12`, the cell viability (compound concentration: 3 uM) is 108%.
Take `COc1cc(OC)c(C(=O)/C=C/c2ccc(OC)c(OC)c2)c(OC)c1` [3,4,2',4',6'-Pentamethoxychalcone]: the cell viability under setting [1] was 95%.
In the case of `Nc1c2c(nc3c1CCC3)CCCC2`, the cell viability (compound concentration: 3 uM) worked out at 95.7%.
Take `N[C@H](Cc1ccccc1)C(=O)O`: the cell viability (compound concentration: 3 uM) was determined as 106%.
In the case of `O=c1cc(-c2cccc(O)c2O)oc2ccccc12`, the cell viability under setting [1] is 87.8%.
Turning to `O=c1c(-c2ccc(O)cc2)coc2cc(O)cc(O)c12` [Genistein], the cell viability (compound concentration: 3 uM) is 103%.
Take `CCOC(=O)Nc1ccc2c(c1)N(C(=O)CCN1CCOCC1)c1ccccc1S2` [Moricizine hydrochloride]: the cell viability (compound concentration: 3 uM) is 88.5%.
Consider `O=C(O)CN(CCOCCOCCN(CC(=O)O)CC(=O)O)CC(=O)O`, for which the cell viability (compound concentration: 3 uM) stood at 106%.
As to `CNC(=C[N+](=O)[O-])NCCSCc1ccc(CN(C)C)o1` [Ranitidine], under “compound concentration: 3 uM”, the cell viability turned out to be 118%.
Consider `CNC(=C[N+](=O)[O-])NCCSCc1ccc(CN(C)C)o1` [Ranitidine hydrochloride], for which the cell viability (compound concentration: 3 uM) is 112 ± 11%.
In the case of `CNC(=C[N+](=O)[O-])NCCSCc1ccc(CN(C)C)o1`, the cell viability (compound concentration: 3 uM) turned out to be 106%.
For `C=CCc1ccc(O)c(-c2ccc(O)c(CC=C)c2)c1`, where the note is “compound concentration: 3 uM”, the cell viability turned out to be 97.3%.
Take `CC(C)C[C@H](NC(=O)[C@@H](O)[C@H](N)Cc1ccccc1)C(=O)O`: the cell viability (compound concentration: 3 uM) is 98.2%.
On the same count and under the same terms, the value for `CC(C)C[C@H](NC(=O)[C@@H](O)[C@H](N)Cc1ccccc1)C(=O)O` [Bestatin hydrochloride] was 94.5%.
Take `COC(=O)[C@H]1[C@H]2C[C@@H]3c4[nH]c5cc(OC)ccc5c4CCN3C[C@H]2C[C@@H](OC(=O)c2cc(OC)c(OC)c(OC)c2)[C@@H]1OC` [Reserpine]: the cell viability by setting is: under setting [1], 108%; (compound concentration: 3 uM) 105 ± 2.7%.
Regarding `COC(=O)[C@H]1[C@H]2C[C@@H]3c4[nH]c5cc(OC)ccc5c4CCN3C[C@H]2C[C@@H](OC(=O)c2cc(OC)c(OC)c(OC)c2)[C@@H]1OC`, the cell viability (compound concentration: 3 uM) was 107%.
The same measure, in the same setting: the value for `CN(C)CCCSc1ccccc1NC(=O)/C=C/c1ccccc1` [Cinanserin] was 100.35 ± 0.028%; that for `CCOC(=O)[C@H](CCc1ccccc1)N[C@@H](C)C(=O)N1[C@H](C(=O)O)C[C@H]2CCCC[C@@H]21` [Trandolapril] was 106%; that for `O=C(O[C@@H]1Cc2c(O)cc(O)cc2O[C@@H]1c1cc(O)c(O)c(O)c1)c1cc(O)c(O)c(O)c1` [Epigallocatechin gallate] was 100%.
